No constants are given. Whether binding was seen depends on the method and setting. Some binding calls cover weakened binding; strength is not graded here.
Assays:
[1] = target: recombinant extracellular domain of the α1 subunit of muscle type nicotinic acetylcholine receptor (α1ECD) (UniProt P04756); experiment: native gel shift assay (legend of FIG. 7C)
[2] = target: recombinant extracellular domain of the α1 subunit of muscle type nicotinic acetylcholine receptor (α1ECD) (UniProt P04756); experiment: native gel shift assay, Tris-Glycine pH 8.3

Protein sequences, listed by entry. Tags and fused reporters are not part of them. Lines headed by an entry give the natural chain unless they say otherwise; changes in a name come on top. Residues count along the entry.
UniProt P04756, residues 21-231: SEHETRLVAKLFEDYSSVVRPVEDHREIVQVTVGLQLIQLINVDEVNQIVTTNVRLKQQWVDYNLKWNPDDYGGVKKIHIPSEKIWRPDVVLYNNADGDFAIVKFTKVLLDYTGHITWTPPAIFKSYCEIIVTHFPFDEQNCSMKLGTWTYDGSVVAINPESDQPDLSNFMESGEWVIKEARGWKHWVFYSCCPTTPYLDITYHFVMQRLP
UniProt P01391: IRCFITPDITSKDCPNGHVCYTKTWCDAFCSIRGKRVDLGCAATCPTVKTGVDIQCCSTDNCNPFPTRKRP
UniProt Q53B58: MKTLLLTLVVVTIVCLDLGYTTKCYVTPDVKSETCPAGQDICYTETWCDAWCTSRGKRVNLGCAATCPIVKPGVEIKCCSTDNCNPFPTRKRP

Substance | binding [1] | binding [2]
α-Cobratoxin (αCtx) (Sigma-Aldrich, C6903), native αCTX isolated from Naja Kaouthia (from UniProt P01391 1-71) (ligand) | binds | binds
rec-Hannalgesin (from UniProt Q53B58 22-93) (ligand) | binds | binds

— US20250122548A1
